We go through one molecule from US20250083204A1, “CUPRIAVIDUS METALLIDURANS CML2, ITS PREPARATION, AND ITS BIOREMEDIATION METHOD FOR HEAVY METAL-CONTAMINATED ENVIRONMENT” (priority 2023, published 2025).

For the data set, the system named is rice seedling. Kind of data set: Cadmium accumulation in rice seedling roots and shoots. In kind it is in vivo. The following applies: cadmium treatment alone.

Structures are written as SMILES.

As to `[Cd+2]` [Cadmium (Cd^2+), Cadmium], the “cadmium content in the root” value amounted to 92.29 µg/g and the “cadmium content in the shoot” value stood at 39.75 µg/g.
